For at least one compound, name, drawing or mass did not settle the structure.
Molecular target: T1, human TLR7 (Homo sapiens, UniProt Q9NYK1)
T1 construct: host or cells: HEK293
T1 sequence (Q9NYK1 27-1049): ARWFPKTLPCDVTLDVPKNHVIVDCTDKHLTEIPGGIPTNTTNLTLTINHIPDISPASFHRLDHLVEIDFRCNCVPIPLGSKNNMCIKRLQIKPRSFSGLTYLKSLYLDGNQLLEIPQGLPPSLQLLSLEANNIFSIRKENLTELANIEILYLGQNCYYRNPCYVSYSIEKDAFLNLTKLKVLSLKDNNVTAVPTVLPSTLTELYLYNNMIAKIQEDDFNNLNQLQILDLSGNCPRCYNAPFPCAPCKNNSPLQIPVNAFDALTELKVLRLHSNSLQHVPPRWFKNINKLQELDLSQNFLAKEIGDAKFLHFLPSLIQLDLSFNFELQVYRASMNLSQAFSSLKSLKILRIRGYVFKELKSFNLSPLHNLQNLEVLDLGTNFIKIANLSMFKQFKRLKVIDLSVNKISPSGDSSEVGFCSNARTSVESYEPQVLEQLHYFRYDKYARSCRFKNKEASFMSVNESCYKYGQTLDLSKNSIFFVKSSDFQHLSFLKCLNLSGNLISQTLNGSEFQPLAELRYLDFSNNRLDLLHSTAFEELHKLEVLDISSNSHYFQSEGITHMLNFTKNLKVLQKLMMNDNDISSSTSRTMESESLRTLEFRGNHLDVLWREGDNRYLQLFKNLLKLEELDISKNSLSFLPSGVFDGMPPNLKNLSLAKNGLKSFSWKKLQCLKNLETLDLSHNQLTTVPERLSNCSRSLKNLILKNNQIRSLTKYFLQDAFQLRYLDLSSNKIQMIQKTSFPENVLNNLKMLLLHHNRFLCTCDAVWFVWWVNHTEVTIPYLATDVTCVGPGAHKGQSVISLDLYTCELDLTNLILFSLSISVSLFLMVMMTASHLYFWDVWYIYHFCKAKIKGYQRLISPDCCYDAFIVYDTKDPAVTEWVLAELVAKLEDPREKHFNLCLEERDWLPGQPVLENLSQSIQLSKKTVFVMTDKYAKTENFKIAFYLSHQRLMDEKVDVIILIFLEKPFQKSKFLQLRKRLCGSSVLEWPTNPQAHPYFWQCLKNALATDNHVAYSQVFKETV
Experiment: HEK293 binding assay, hTLR7 (NFκB-mediated SEAP reporter)
Format: cell-based
Details: ratio of TLR7 ED50 to TLR8 ED50, HEK293 assay

Going from `CCCCCCCCCCCCCCCC(=O)OCC(COCCOCCOCCOCCOCCOCCOCCOCCOCCOP(=O)(O)OCCn1c(CCCC)nc2c(N)nc3ccccc3c21)OC(=O)CCCCCCCCCCCCCCC` (stereo not shown) [Compound 5, 4-amino-1-[2-(1,2-dipalmitoyl-sn-glycero-3 nonaethyleneglycol-phospho)ethyl]-2-n-butyl-1H-imidazo[4,5-c]quinoline] to `CCCCCCCCCCCCCCCC(=O)OCC(COCCOCCOCCOCCOCCOCCOP(=O)(O)OCCn1c(CCCC)nc2c(N)nc3ccccc3c21)OC(=O)CCCCCCCCCCCCCCC` (stereo not shown) [Compound 4, 4-amino-1-[2-(1,2-dipalmitoyl-sn-glycero-3 hexaethyleneglycol-phospho)ethyl]-2-n-butyl-1H-imidazo[4,5-c]quinoline], the “TLR7/8 Ratio” value falls from 1.3 to 0.4.

Compared with `CCCCCCCCCCCCCCCC(=O)OCC(COCCOCCOCCOP(=O)(O)OCCn1c(CCCC)nc2c(N)nc3ccccc3c21)OC(=O)CCCCCCCCCCCCCCC` (stereo not shown) [Compound 3, 4-amino-1-[2-(1,2-dipalmitoyl-sn-glycero-3 triethyleneglycol-phospho)ethyl]-2-n-butyl-1H-imidazo[4,5-c]quinoline], `CCCCCCCCCCCCCCCC(=O)OCC(COCCOP(=O)(O)OCCn1c(CCCC)nc2c(N)nc3ccccc3c21)OC(=O)CCCCCCCCCCCCCCC` (stereo not shown) [Compound 2, 4-amino-1-[2-(1,2-dipalmitoyl-sn-glycero-3-ethyleneglycol-phospho)ethyl]-2-n-butyl-1H-imidazo[4,5-c]quinoline] is lower in “TLR7/8 Ratio” value: 1.0 for the first, 0.2 for the second.

From patent US10882876B2, “Pegylated imidazoquinolines as TLR7 and TLR8 agonists” (GlaxoSmithKline Biologicals SA, priority 2015, dated 2021)
